Results on one substance are retold here after publication doi:10.1101/2020.10.06.328641.

This test addresses T1, KSHV ORF59, DNA polymerase processivity factor (KSHV (human herpesvirus 8), BAC16 in iSLK cells) (UniProt F5HID2).
T1 sequence: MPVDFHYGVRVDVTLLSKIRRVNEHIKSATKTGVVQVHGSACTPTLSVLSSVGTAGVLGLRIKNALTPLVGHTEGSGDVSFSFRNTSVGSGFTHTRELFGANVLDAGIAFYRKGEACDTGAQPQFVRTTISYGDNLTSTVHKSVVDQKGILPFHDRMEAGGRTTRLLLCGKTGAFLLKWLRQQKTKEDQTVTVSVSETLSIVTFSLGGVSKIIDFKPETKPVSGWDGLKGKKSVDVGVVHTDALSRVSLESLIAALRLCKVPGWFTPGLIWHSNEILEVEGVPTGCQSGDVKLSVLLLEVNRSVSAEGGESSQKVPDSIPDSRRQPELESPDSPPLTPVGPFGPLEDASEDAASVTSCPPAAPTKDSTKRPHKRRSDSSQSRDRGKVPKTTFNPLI
Put plainly: co-IP.

These are yes or no findings as the source states them, for the method shown. In cells and extracts the contact can be indirect. Binding can be weak; no strength is given.

With KSHV ORF20 protein, the binding result is reported as “binds”.
